According to patent US20060182685A1, “Hollow fiber technique for in vivo study of cell populations” (priority 2004, published 2006):
For part of these data: At least one compound was matched to its structure with a doubt left. Some entries share one result that the patent states for a list of compounds.

Legend:
[1] = Serum antibiotic concentrations in mice on medicated diet; conditions: sacrificed mice at each timepoint; diet isoniazid 0.05% or rifampin 0.02%
[2] = system: hollow fiber-encapsulated M. tuberculosis H37Rv-lux; format: in vivo; conditions: 0.25% moxifloxacin in diet from day 1 after implantation; by day 14 after daily therapy

NNC(=O)c1ccncc1 [Isoniazid, isoniazid]
Serum concentration relative to respective MIC90 [1]: at least 10 times

CO[C@H]1/C=C/O[C@@]2(C)Oc3c(C)c(O)c4c(O)c(c(/C=N/N5CCN(C)CC5)c(O)c4c3C2=O)NC(=O)/C(C)=C\C=C\[C@H](C)[C@H](O)[C@@H](C)[C@@H](O)[C@@H](C)[C@H](OC(C)=O)[C@@H]1C [Rifampin, rifampin]
Serum concentration relative to respective MIC90 [1]: at least 10 times

COc1c(N2C[C@@H]3CCCN[C@@H]3C2)c(F)cc2c(=O)c(C(=O)O)cn(C3CC3)c12 [moxifloxacin]
culture status of fibers [2]: culture-negative
